PubChem BioAssay AID248 (DTP/NCI, 2004)
The list is a part of this screen's results and no random one: it is rich in T/C values a quarter to a half above the control, in often repeated tests (any T/C) and in doses without a T/C. Other doses and runs of a compound stand elsewhere. T/C: endpoint of the treated group in % of that of the vehicle group. Some doses have a count of surviving animals in place of a T/C: the source files T/C as zero there, which appears to mark a toxic dose or a test without result, not a measured value. Some survivor counts are full or nearly so, which does not show that the dose was tolerated: survival well below the control is almost never listed, so the zero probably covers shortened survival too. Counts of survivors are from the toxicity check (mostly the fifth day) where no day follows; animals may have died later. Schedule codes are those of the source, taken here to give the interval after Q, in days (D) or hours (H), and the number of doses after X. For survival time, this PubChem deposit counts one and a half times the control or more as active, and values a quarter to a half above the control carry no call in these data; other NCI protocols may use other cut-offs. Some entries hold several experiments; their values stand side by side, smallest first.

Test system: L1210 leukemia ip in BDF1 mice, survival T/C
Assay: NCI In Vivo Anticancer Drug Screen. Data for tumor model L1210 Leukemia (intraperitoneal) in B6D2F1 (BDF1) mice
Settings: T/C endpoint: mean survival time, higher T/C = longer survival

N#CC12C(=N)CCC1C1C=CC2C1 (centres undefined)
survivor count (dose: 25.0 mg/kg/injection, schedule: Q01DX009 (ip), vehicle: Klucel (hydroxypropylcellulose) (HPC)): 1 of 6
survivor count (dose: 50.0 mg/kg/injection, schedule: Q01DX009 (ip), vehicle: Klucel (hydroxypropylcellulose) (HPC)): 0 of 6
survivor count (dose: 100.0 mg/kg/injection, schedule: Q01DX009 (ip), vehicle: Klucel (hydroxypropylcellulose) (HPC)): 0 of 6
survivor count (dose: 200.0 mg/kg/injection, schedule: Q01DX009 (ip), vehicle: Klucel (hydroxypropylcellulose) (HPC)): 0 of 6
survivor count (dose: 400.0 mg/kg/injection, schedule: Q04DX003 (ip), vehicle: Klucel (hydroxypropylcellulose) (HPC)): 0 of 6

Clc1ccc2c(NCCc3cnc[nH]3)ccnc2c1
survivor count (dose: 400.0 mg/kg/injection, schedule: Q01DX009 (ip), vehicle: saline with Tween-80): 6 of 6

CCCC(=O)Nc1cccc2ccccc12
survivor count (dose: 400.0 mg/kg/injection, schedule: Q04DX002 (ip), vehicle: Klucel (hydroxypropylcellulose) (HPC)): 0 of 3

N=c1c2c(C(N)=O)cn(C3OC(CO)C(O)C3O)c2ncn1O (centres undefined)
T/C (dose: 5.0 mg/kg/injection, schedule: Q01DX001 (ip), vehicle: saline): 140 % of control
survivor count (dose: 20.0 mg/kg/injection, schedule: Q01DX001 (ip), vehicle: saline with Tween-80): 2 of 5
survivor count (dose: 20.0 mg/kg/injection, schedule: Q01DX001 (ip), vehicle: water): 6 of 6
survivor count (dose: 40.0 mg/kg/injection, schedule: Q01DX001 (ip), vehicle: saline with Tween-80): 0 of 6
survivor count (dose: 40.0 mg/kg/injection, schedule: Q01DX001 (ip), vehicle: saline): 2 of 6
survivor count (dose: 40.0 mg/kg/injection, schedule: Q01DX001 (ip), vehicle: water): 0 of 6
survivor count (dose: 75.0 mg/kg/injection, schedule: Q01DX001 (ip), vehicle: saline): 0 of 6
survivor count (dose: 80.0 mg/kg/injection, schedule: Q01DX001 (ip), vehicle: saline): 0 of 6
survivor count (dose: 80.0 mg/kg/injection, schedule: Q01DX001 (ip), vehicle: water): 0 of 6
survivor count (dose: 100.0 mg/kg/injection, schedule: Q01DX001 (ip), vehicle: water): 0 of 6
survivor count (dose: 150.0 mg/kg/injection, schedule: Q01DX001 (ip), vehicle: saline): 0 of 6
survivor count (dose: 200.0 mg/kg/injection, schedule: Q01DX001 (ip), vehicle: water): 0 of 6
survivor count (dose: 300.0 mg/kg/injection, schedule: Q01DX001 (ip), vehicle: saline): 0 of 6
survivor count (dose: 400.0 mg/kg/injection, schedule: Q01DX001 (ip), vehicle: water): 0 of 6

Cn1c(=O)c2[nH]cnc2n(C)c1=O (tested in a mixture with another compound)
survivor count (dose: 400.0 mg/kg/injection, schedule: Q04DX003 (ip), vehicle: saline with Tween-80): 4 of 6

O=C(Nc1ccccn1)C(O)C(O)C(O)C(O)CO (centres undefined)
survivor count (dose: 100.0 mg/kg/injection, schedule: Q01DX003 (ip), vehicle: saline): 2 of 3
survivor count (dose: 200.0 mg/kg/injection, schedule: Q01DX003 (ip), vehicle: saline): 0 of 3
survivor count (dose: 400.0 mg/kg/injection, schedule: Q01DX003 (ip), vehicle: saline): 0 of 3

N#CC(C#N)=NNc1cccc(Cl)c1
survivor count (dose: 100.0 mg/kg/injection, schedule: Q04DX003 (ip), vehicle: Klucel (hydroxypropylcellulose) (HPC)): 1 of 6

Nc1c(Cl)ncnc1NC1CCC(CO)C1 (centres undefined)
survivor count (dose: 400.0 mg/kg/injection, schedule: Q01DX001 (ip), vehicle: carboxymethylcellulose (CMC)): 0 of 4

COc1cc2c(cc1OC)C(OC)N(C)c1c-2ccc2cc(OC)c(OC)cc12 (centres undefined)
T/C (dose: 100.0 mg/kg/injection, schedule: Q01DX009 (ip), vehicle: water): 134 % of control
T/C (dose: 200.0 mg/kg/injection, schedule: Q01DX009 (ip), vehicle: water): 127 and 139 % of control
